# In PubChem BioAssay AID504834 (National Center for Advancing Translational Sciences (NCATS), 2011):
# Among all 320,000 compounds or so, about 22,000 (6.9%) were called active. The inconclusive results got no clear call from the source; some entries with a clear call stand among them for comparison. Calls come from the whole dose curve; as a rule, active = well fitted inhibition curve with a large enough effect; inconclusive = small, poorly fitted or top-dose-only effect, or another doubt; inactive = no such curve, though single readings can be large or run the other way. A potency beside an inconclusive call is a rough fit, not a confirmed value.
# Experiment: Primary qHTS for delayed death inhibitors of the malarial parasite plastid, 96 hour incubation
# Conditions: P. falciparum luciferase reporter growth; series mostly up to 28.7 µM
# Method in brief: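 Cell-based qHTS: luciferase-tagged P. falciparum in erythrocytes (2% hematocrit, 0.05% parasitemia final) incubated with compounds for 96 hours, 37 C, 5% CO2; luciferase detection reagent then added and luminescence measured.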
# % is set by controls: 0 for no effect and ±100 for the full control effect; potency is the fitted concentration of half-maximal effect.
SMILES,Potency,"activity change, negative = inhibition"
C=CCn1c(NC(=O)c2ccc(Br)o2)c(S(=O)(=O)c2ccccc2)c2nc3ccccc3nc21,inactive,
O=C(COC(=O)CCNS(=O)(=O)c1ccccc1)Nc1ccc(OC(F)F)cc1,inactive,
Cc1ccccc1NC(=O)NC1(C(=O)NCCCN2CCOCC2)CCCCC1,"inconclusive: 10.4 µM [inhibitor, single point]",
CSc1ccc2[nH]c(=O)cc(C)c2c1,inactive,
CCNC(=O)NC(=O)COC(=O)CCCc1nc2ccccc2s1,inactive,
CN(CC(=O)Nc1cccc(F)c1)C(=O)c1cc(S(=O)(=O)N2CCCCC2)ccc1N1CCOCC1,"inconclusive: 11.7 µM [inhibitor, single point]",
CC(C)c1ccc(/C=C2\Oc3c(ccc(O)c3CN3CCN(C)CC3)C2=O)cc1,"inconclusive: 16.5 µM [inhibitor, single point]",
COC(=O)C1CCCCN1C(=O)c1ccc(OC2CCN(C(C)=O)CC2)c(OC)c1 (stereo unspecified),active: 11.7 µM,
CCCn1c(N)c(C(=O)CSc2n[nH]c(-c3ccc(C)cc3)n2)c(=O)[nH]c1=O,inactive,
CN1CCN(Cc2c(C(=O)N/N=C/c3cccc(Br)c3)nnn2-c2nonc2N)CC1,inactive,
CCN(C(=O)COC(=O)c1cccc(C)c1[N+](=O)[O-])c1c(N)n(Cc2ccccc2)c(=O)[nH]c1=O,inactive,
Cc1ccc(-c2cc(-c3nnc(SCC(=O)NCC(C)C)n3N)c3ccccc3n2)cc1,,inactive: -9.84% [at 5.75 µM]
Cc1ccc(-n2cnn(-c3ccc([N+](=O)[O-])cc3[N+](=O)[O-])c2=O)cc1,"inconclusive: 18.5 µM [inhibitor, single point]",
COc1cc(-c2nc(S(=O)(=O)c3ccc(C)cc3)c(N(C)C)o2)cc(OC)c1OC,inactive,
Cc1cccc2nc(CSc3nc4ccc([N+](=O)[O-])cc4[nH]3)cn12,"inconclusive: 16.5 µM [inhibitor, single point]",
CC(C)(C)OC(=O)CNC(=O)c1[nH]cnc1C(=O)Nc1ccc(Cl)cc1,inactive,
Cc1cc(C)cc(NC(=O)CCn2cnc3cc(C)c(C)cc32)c1,"inconclusive: 10.4 µM [inhibitor, partial curve, poor fit]",
COc1ccccc1NS(=O)(=O)c1ccc(NC(=O)c2[nH]nc(OC)c2[N+](=O)[O-])cc1,"inconclusive: 11.7 µM [inhibitor, partial curve]",
COc1ccc(-c2nc(C=O)cs2)cc1,inactive,
CCCSc1nc2c(cnn2-c2ccc(C)cc2)c(=O)[nH]1,inactive,
CC(=O)C1=C(C)NC(=O)NC1c1ccc(Cl)cc1 (stereo unspecified),"inconclusive: 13.1 µM [inhibitor, single point]",
COc1ccc(S(=O)(=O)CCC(=O)N2CCN(c3ccc([N+](=O)[O-])cc3)CC2)cc1,inactive,
Cc1cc(C)n(S(=O)(=O)c2ccccc2)n1,inactive,
COc1ccc(O[C@H]2C=C[C@@H](c3ccccc3)O[C@@H]2CO/N=C(\C)CCN2CCc3nc(-c4ccccc4)c(-c4ccccc4)cc3C2)cc1,"inconclusive: 4.15 µM [inhibitor, partial curve, poor fit]",
Cc1ccsc1C(=O)C1CCCN(Cc2cnn(C)c2)C1 (stereo unspecified),"inconclusive: 18.5 µM [inhibitor, single point]",
Cc1cccc(CCNC(=O)CCc2nc(-c3ccccc3F)no2)c1,"inconclusive: 13.1 µM [inhibitor, single point]",

SMILES,Potency,"activity change, negative = inhibition"
CC1CC(C)CN(C(=O)CCc2ccccc2)C1 (stereo unspecified),"inconclusive: 18.5 µM [inhibitor, single point]",
COc1cc(/C=C/C(=O)NC(=O)c2ccccc2O)ccc1OC(C)=O,active: 9.28 µM,
COC(=O)C1=C(C)N(C)C(C)=C(C(=O)OC)C1c1ccc(C(=O)OC)cc1,"inconclusive: 13.1 µM [inhibitor, single point]",
CC(=O)N1c2ccc(S(=O)(=O)NCC3CCC(C(=O)NC4CCCCC4)CC3)cc2CC1C (stereo unspecified),"inconclusive: 4.15 µM [inhibitor, partial curve]",
Cc1ccc(/C=C2/NC(=O)N(c3ccccc3)C2=O)o1,inactive,
CC(C)(O)C#Cc1ccc(C(=O)NCCC(=O)O)s1,inactive,
Cc1ccccc1C(=O)Nc1ccc(N2CCCC2)cc1,inactive,
COc1ccccc1OC(=O)CCc1nc2ccccc2s1,inactive,
CCC(=O)OCCn1c(Br)nc2c1c(=O)[nH]c(=O)n2C,"inconclusive: 6.57 µM [inhibitor, partial curve]",
CCOC(=O)N1CCN(CCc2ccccc2)CC1,active: 10.4 µM,
COc1ccc(C)cc1S(=O)(=O)Nc1ccccc1C,"inconclusive: 18.5 µM [inhibitor, single point]",
COc1ccccc1CC(=O)NCCc1c[nH]c2ccccc12,"inconclusive: 3.7 µM [inhibitor, partial curve, poor fit]",
CCc1ccc(NC(=O)C2CCCN2S(=O)(=O)c2ccc3c(c2)C(C)(C)C(=O)N3C)cc1 (stereo unspecified),inactive,
COc1ccc(Cl)cc1C(=O)n1cnc2ccccc21,"inconclusive: 0.0029 µM [inhibitor, full curve, poor fit]",
COC(=O)c1oc2ccc(Br)cc2c1NC(=O)CCN1CCOCC1,"inconclusive: 10.4 µM [inhibitor, partial curve, poor fit]",
O=C(CCn1c(=O)oc2ccccc21)N1CCN(c2ccc(F)cc2)CC1,inactive,
COc1ccc(N2CCN(C(=O)COC(=O)/C=C/c3ccc(C(F)(F)F)cc3)CC2)cc1,inactive,
COc1ccc(CN(C)C(=O)c2ccc3c(=O)n4c(nc3c2)CCC4)cc1,"inconclusive: 18.5 µM [inhibitor, single point]",
CCOc1ccc(S(=O)(=O)Nc2ccc(F)cc2)c(C)c1C,inactive,
O=C(CN1C(=O)NC2(CCCCCC2)C1=O)c1ccc2c(c1)OCCO2,active: 8.28 µM,
COC(=O)c1ccc(C23CC4(C2)[C@H](CN(Cc2ccc(C(F)(F)F)cc2)[C@@H]4c2ccccc2)C3c2ccc(Cl)nc2)cc1 (stereo partly specified),active: 11.7 µM,
CCc1cc2cc(C)cc(C)c2nc1SCC(=O)N1CCCC1,"inconclusive: 11.7 µM [inhibitor, single point]",
COCC(=O)N1CCC(Oc2cccc(C(=O)NCc3ccccn3)c2)CC1,"inconclusive: 18.5 µM [inhibitor, single point]",
COc1ccc(S(=O)(=O)N(CC(=O)NCc2cccnc2)c2ccc(C)cc2)cc1OC,"inconclusive: 20.8 µM [inhibitor, partial curve, poor fit]",
Cc1ccc(N(CC(=O)Nc2c(C)n(C)n(-c3ccccc3)c2=O)S(C)(=O)=O)c(C)c1,"inconclusive: 10.4 µM [inhibitor, partial curve, poor fit]",
COc1ccc(N2CCN(C(=O)CCCn3c(=O)[nH]c4ccsc4c3=O)CC2)cc1,active: 7.38 µM,

# Looked up above:
# Value of `COc1ccc(N2CCN(C(=O)COC(=O)/C=C/c3ccc(C(F)(F)F)cc3)CC2)cc1` under Potency: inactive
# Value of `CCC(=O)OCCn1c(Br)nc2c1c(=O)[nH]c(=O)n2C` under Potency: inconclusive: 6.57 µM [inhibitor, partial curve]
# Value of `COc1ccc(C)cc1S(=O)(=O)Nc1ccccc1C` under Potency: inconclusive: 18.5 µM [inhibitor, single point]
# Value of `COC(=O)c1oc2ccc(Br)cc2c1NC(=O)CCN1CCOCC1` under Potency: inconclusive: 10.4 µM [inhibitor, partial curve, poor fit]

# The list goes on.

SMILES,Potency,"activity change, negative = inhibition"
Cc1ccc(C(=O)/C=C/c2ccc(-c3ccccc3[N+](=O)[O-])o2)cc1,inactive,
O=C(c1ccccc1F)c1cn(Cc2ccccc2)c2ccccc12,inactive,
O=C1CCCN1CCCNc1ncnc2c1[nH]c1ccccc12,inactive,
CCCS(=O)(=O)N1CCC(C(=O)N2CCC(Cc3ccccc3)CC2)CC1,"inconclusive: 0.0738 µM [inhibitor, full curve, poor fit]",
CSc1oc(-c2ccco2)nc1S(=O)(=O)c1ccc(Br)cc1,"inconclusive: 10.4 µM [inhibitor, partial curve]",
CN(c1cccc(NS(=O)(=O)c2ccccc2)c1)S(C)(=O)=O,inactive,
Cc1ccc(OCCNC(=O)CNC(=O)c2ccc3c(c2)OCO3)cc1,inactive,
CCC[C@@H]1O[C@@H]2C[C@@H]3[C@H]4CCC5=CC(=O)C=C[C@@]5(C)[C@H]4[C@H](O)C[C@@]3(C)[C@@]2(C(=O)CO)O1,active: 4.78 µM,
CCn1c(COc2cccc(C)c2C)nnc1SCC(=O)N1CCN(c2ccc(OC)cc2)CC1,active: 9.28 µM,
Cc1cccc(OC2CCN(Cc3nc(CC4CC4)no3)CC2)c1,active: 4.65 µM,
COc1cccc(C(c2nnnn2Cc2ccccc2)N2CCN(C3CCCC3)CC2)c1OC (stereo unspecified),active: 2.33 µM,
C[C@H]1O[C@@H](n2cc(F)c(=O)[nH]c2=O)[C@H](O)[C@@H]1O,inactive,
CCC(=O)N1CCN(c2nnc(-c3ccccc3)c3ccccc23)CC1,inactive,
CC(C)NCc1nnc(-c2ccccc2Cl)o1,"inconclusive: 0.329 µM [inhibitor, partial curve, poor fit]",
CCN(CC(=O)NCCc1ccccc1)S(=O)(=O)c1ccccc1,"inconclusive: 13.1 µM [inhibitor, single point]",
CN(C)C(=O)COC(=O)c1cccnc1Nc1ccccc1F,inactive,
COc1ccc(/C(C)=N/NC(=S)NCCc2ccccc2)cc1,"inconclusive: 18.5 µM [inhibitor, single point]",
Cc1cc(C)cc(N(C)S(=O)(=O)c2nnc(NC(=O)C(C)C)s2)c1,inactive,
Cc1ccc(S(=O)(=O)NCC(=O)OCC(=O)Nc2ccc3c(c2)OCCO3)cc1,inactive,
Cc1cccc(-n2ncc3c2CCCC3NC(=O)CCc2ccncc2)c1C (stereo unspecified),"inconclusive: 18.5 µM [inhibitor, single point]",
O=C(CNCc1ccco1)Nc1cccc(S(=O)(=O)N2CCCCC2)c1,inactive,
N=Cc1c(O)n(-c2cccc(Cl)c2)c(=O)[nH]c1=O,inactive,
Cc1ccccc1COc1ccc(-c2nn[nH]n2)cc1,inactive,
CC(C)OC(=O)CSc1nc2ncc(Cl)cc2[nH]1,"inconclusive: 1.47 µM [inhibitor, full curve]",
